Holding throughout (assay): co-IP; 293T cells cotransfected with a GFP fusion and FLAG-tagged proteins for 24 h; lysis in 50 mM Tris-HCl pH 7.6, 150 mM NaCl, 1 mM EDTA, 1% Triton X-100, 1 mM PMSF; precipitation with GFP-Trap MA beads; blots with anti-GFP and anti-FLAG
For experiment [1], the target named is T1, GFP-ORF44 (Kaposi's sarcoma-associated herpesvirus (KSHV, human herpesvirus 8)) (UniProt Q2HR89).
T1 sequence: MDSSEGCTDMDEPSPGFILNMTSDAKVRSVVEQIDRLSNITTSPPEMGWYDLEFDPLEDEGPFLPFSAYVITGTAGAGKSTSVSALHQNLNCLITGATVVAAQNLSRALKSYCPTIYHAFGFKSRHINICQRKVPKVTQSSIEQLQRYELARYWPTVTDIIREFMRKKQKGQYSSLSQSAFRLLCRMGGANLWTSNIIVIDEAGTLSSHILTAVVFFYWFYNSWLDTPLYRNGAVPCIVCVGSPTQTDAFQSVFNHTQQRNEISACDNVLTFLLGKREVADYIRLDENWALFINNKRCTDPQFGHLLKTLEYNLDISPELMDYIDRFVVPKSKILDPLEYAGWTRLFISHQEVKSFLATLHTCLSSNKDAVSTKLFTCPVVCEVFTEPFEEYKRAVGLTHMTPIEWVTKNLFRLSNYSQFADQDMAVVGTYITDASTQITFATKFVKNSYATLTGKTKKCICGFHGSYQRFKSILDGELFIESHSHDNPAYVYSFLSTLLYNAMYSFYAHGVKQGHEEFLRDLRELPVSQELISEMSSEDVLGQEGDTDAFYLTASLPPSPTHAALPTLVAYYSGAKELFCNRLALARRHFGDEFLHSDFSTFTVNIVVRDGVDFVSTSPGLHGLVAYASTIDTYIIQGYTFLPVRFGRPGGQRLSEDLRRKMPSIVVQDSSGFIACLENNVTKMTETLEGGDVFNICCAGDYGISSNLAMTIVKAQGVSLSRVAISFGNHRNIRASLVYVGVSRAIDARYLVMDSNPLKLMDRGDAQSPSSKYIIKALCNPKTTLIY

The target of experiment [2] is T2, GFP-ORF9 (Kaposi's sarcoma-associated herpesvirus (KSHV, human herpesvirus 8)) (UniProt Q2HRD0).
T2 sequence: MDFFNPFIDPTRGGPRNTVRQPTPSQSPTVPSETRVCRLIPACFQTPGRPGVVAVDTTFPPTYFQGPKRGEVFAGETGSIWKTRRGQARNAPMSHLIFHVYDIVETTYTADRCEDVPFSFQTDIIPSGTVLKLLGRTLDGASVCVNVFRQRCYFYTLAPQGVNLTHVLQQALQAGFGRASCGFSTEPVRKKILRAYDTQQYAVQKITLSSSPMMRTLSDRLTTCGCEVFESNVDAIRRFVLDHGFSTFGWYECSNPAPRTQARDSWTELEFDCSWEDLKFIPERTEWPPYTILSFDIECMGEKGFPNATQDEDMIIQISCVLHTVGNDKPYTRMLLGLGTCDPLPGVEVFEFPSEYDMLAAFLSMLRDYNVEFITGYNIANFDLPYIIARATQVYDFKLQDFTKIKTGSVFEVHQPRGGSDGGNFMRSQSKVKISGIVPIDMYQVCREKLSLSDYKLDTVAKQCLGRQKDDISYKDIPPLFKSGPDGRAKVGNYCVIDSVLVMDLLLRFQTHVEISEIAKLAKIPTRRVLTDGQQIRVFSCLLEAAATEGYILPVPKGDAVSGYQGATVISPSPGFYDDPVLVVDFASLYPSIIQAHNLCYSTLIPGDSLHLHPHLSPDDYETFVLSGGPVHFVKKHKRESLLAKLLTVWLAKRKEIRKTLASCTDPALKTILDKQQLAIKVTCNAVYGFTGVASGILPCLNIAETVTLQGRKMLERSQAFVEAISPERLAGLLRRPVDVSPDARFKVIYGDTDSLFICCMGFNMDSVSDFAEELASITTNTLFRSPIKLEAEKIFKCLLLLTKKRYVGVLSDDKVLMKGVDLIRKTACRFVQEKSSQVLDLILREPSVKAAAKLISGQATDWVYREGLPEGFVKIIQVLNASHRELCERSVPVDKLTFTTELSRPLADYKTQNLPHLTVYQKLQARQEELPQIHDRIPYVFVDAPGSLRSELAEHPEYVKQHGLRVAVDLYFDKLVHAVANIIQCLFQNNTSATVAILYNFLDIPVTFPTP

Experiment [3] deals with T3, GFP-ORF40/41 (Kaposi's sarcoma-associated herpesvirus (KSHV, human herpesvirus 8)) (UniProt Q2HR92).
T3 sequence: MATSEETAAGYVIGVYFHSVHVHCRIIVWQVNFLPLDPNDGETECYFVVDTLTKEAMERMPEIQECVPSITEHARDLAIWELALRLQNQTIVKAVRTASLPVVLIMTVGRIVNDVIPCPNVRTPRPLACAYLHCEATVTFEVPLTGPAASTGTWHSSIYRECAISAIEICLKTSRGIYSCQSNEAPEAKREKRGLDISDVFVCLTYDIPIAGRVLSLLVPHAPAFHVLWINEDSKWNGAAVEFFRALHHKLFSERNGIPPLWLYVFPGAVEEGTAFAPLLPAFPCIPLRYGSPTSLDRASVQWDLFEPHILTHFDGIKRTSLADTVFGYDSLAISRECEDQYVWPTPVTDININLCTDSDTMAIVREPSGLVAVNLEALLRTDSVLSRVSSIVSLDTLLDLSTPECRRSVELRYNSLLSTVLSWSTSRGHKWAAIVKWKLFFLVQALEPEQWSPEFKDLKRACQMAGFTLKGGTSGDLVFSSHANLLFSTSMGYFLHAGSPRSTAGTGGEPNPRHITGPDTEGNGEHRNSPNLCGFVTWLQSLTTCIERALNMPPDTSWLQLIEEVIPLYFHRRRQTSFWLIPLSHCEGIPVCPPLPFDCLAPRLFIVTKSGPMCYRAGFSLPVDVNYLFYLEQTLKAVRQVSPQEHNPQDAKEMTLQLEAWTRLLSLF

No constants are given. Whether binding was seen depends on the method and setting. In cells and extracts the contact can be indirect. Some binding calls cover weakened binding; strength is not graded here. Where a sequence is shown, tags or fusion partners need not be part of it.

B1: VP16-ORF6 (natural protein)
chain: MALKGPQTLEENIGSAAPTGPCGYLYAYVTHNFPIGEASLLGNGYPEAKVFSLPLLHGLTVESDFPLNVKAVHKKIDATTASVKLTSYHREAIVFHNTHLFQPIFQGKGLEKLCRESRELFGFSTFVEQQHKGTLWSPEACPQLPCANEIFMAVIVTEGFKERLYGGKLVPVPSQTTPVHIGEHQAFKIPLYDEDLFGPSRAQELCRFYNPDISRYLHDSIFTGIAQALRVKDVSTVIQASERQFVHDQYKIPKLVQAKDFPQCASRGTDGSTLMVIDSLVAELGMSYGLSFIEGPQDSCEVLNYDTWPIFENCETPDARLRALEVWHAEQALHIGAQLFAANSVLYLTRVAKLPQKNQRGDANMYNSFYLQHGLGYLSEATVKENGASAFKGVPVSALDGSSYTLQHLAYASSFSPHLLARMCYYLQFLPHHKNTNSQSYNVVDYVGTAAPSQMCDLCQGQCPAVCINTLFYRMKDRFPPVLSNVKRDPYVITGTAGTYNDLEILGNFATFREREEEGNPVEDAPKYTYWQLCQNITEKLASMGISEGGDALRTLIVDIPSFVKVFKGIDSTVEAELLKFINCMIKNNYNFRENIKSVHHILQFACNVYWQAPCPVFLTLYYKSLLTVIQDICLTSCMMYEQDNPAVGIVPSEWLKMHFQTMWTNFKGACFDKGAITGGELKIVHQSMFCDLFDTDAAIGGMFAPARMQVRIARAMLMVPKTIKIKNRIIFSNSTGAESIQAGFMKPASQRDSYIVGGPYMKFLNALHKTLFPSTKTSALYLWHKIGQTTKNPILPGVSGEHLTELCNYVKASSQAFEEINVLDLVPDTLTSYAKIKLNSSILRACGQTQFYATTLSCLSPVTQLVPAEEYPHVLGPVGLSSPDEYRVKVAGRSVTIVQSTLKQAVSTNGRLRPIITVPLVVNKYTGSNGNTNVFHCANLGYFSGRGVDRNLRPESVPFKKNNVSSMLRKRHVIMTPLVDRLVKRIVGINSGEFEAEAVKRSVQNVLEDRDNPNLPKTVVLELVKHLGSSCASLTEEDVIYYLGPYAVLGDEVLSLLSTVGQAGVPWTAEGVASVIQDIIDDCELQFVGPEEPCLIQGQSVVEELFPSPGVPSLTVGKKRKIASLLSDLDL
notes: source: 293T, transfected, mammalian two-hybrid fusion
Regarding B1, the binding result in experiment [1] is “no binding”; in experiment [2], “no binding”; in experiment [3] it was “binds”.

Source of the values: article PMC10715029, “Interaction and assembly of the DNA replication core proteins of Kaposi’s sarcoma-associated herpesvirus” (Microbiology Spectrum, 2023).
